In patent US7056908B2, “Pharmaceutical compositions and methods for preventing skin tumor formation and causing regression of existing tumors” (priority 1991, dated 2006):

Assays:
primary keratinocytes = type: cell-based, mouse
Procedure: EGF binding was assessed in 6-well tissue culture dishes plated at a cell density of 2.5×10^6 cells/well (Strickland, J. E. et al, “Interaction of epidermal growth factor with basal and differentiating epidermal cells of mice resistant and sensitive to carcinogenesis,” Carcinogenesis, 5: 735–740, 1984). […] A second set of cultures received, in addition, 1 μg/ml unlabelled EGF to assess non-specific binding of radioactive ligand. Following the incubation period, cultures were washed 4 times with ice-cold binding buffer, harvested in 1.5 ml lysis buffer (0.1 M tris (pH 7.4), 0.5% SDS, 1 mM EDTA), and radioactivity determined by scintillation counting.
Exposure of a variety of cultured cell types to TPA results in inhibition of EGF binding which is attributed to PKC-mediated phosphorylation of the EGF receptor (Diamond, L., “Tumor promoters and cell transformation,” In: D. Grunberger and S. P. Goff. (eds.), Mechanisms of Cellular Transformation by Carcinogenic Agents, pp. 73–133, New York: Pergamon Press. 1987).
Each point is the mean of trilpicate dishes±standard error of the mean.

[1] = system: grafted SP-1 mouse papilloma cells; assay: Tumor formation from grafted SP-1 papilloma cells on nude mice, topical treatment; type: in vivo
[2] = system: grafted 308 mouse papilloma cells; assay: Tumor formation from grafted 308 papilloma cells on nude mice, topical treatment; type: in vivo; settings: Example 4; topical twice per week in acetone from two weeks after grafting

With `CN[C@@H]1C[C@H]2O[C@@](C)([C@@H]1OC)n1c3ccccc3c3c4c(c5c6ccccc6n2c5c31)C(=O)NC4` [staurosporine] the “inhibition of 125I-EGF binding” value (primary keratinocytes) was “lack of response”, the “inhibition of tumor size” value ([1]; Example 1, 2.5 nmole in 25 μl acetone once a week from two weeks after grafting) was “clear as early as four weeks after grafting” and the “optimum dose for inhibition of tumor formation” value (shortened to “optimum dose for inhibition”) ([1]; Example 2, topical twice per week from two weeks after grafting, lowest dose tested) was 0.125 nmol. The “optimum dose for inhibition” value ([1]; Example 3, topical twice per week in acetone from two weeks after grafting) was 0.025 nmol, the most inhibitory dose ([1]; Example 5, single topical treatment two weeks after grafting) was 0.125 nmol and the “optimum dose for inhibition” value [2] was 0.025 nmol.
